Construct, isoform or probe ends are uncertain for at least one entry. At least one result comes from cells or an extract, where the contact may be indirect. Negatives hold for the conditions tested. At least one verdict was read from the data and is not stated in words by the source.
System: PPARgamma + RXRalpha
Experiment: EMSA
Settings: mutated probe, complex abolished; 5-15 ug TC-7 nuclear extract, 25 mM HEPES (pH not stated), 100 mM KCl, 0.1% NP-40, 1 mM DTT, 5% glycerol, 1 ug poly(dI-dC), 20 fmol probe in 20 ul; protein in an extract; label: 5'-32P

## GCTTGGAAATTATGCTTTATGCAAACAT (double strand) [BCMO1 PPRE mutated]
  binding result: no binding

— paper PMC1526748
